In PubChem BioAssay (NCATS):
This list was built around the results that the source calls inconclusive (neither active nor inactive); the mix of calls is not that of the screen. Potencies of inconclusive entries are doubtful fits and often do not repeat. Calls of active or inactive are those of the source. The call rests on the fitted dose curve; in most records, active means well fitted cell-killing curve with a large enough effect; inconclusive means small, poorly fitted or top-dose-only effect, or effect the other way; inactive means no such curve, though single readings can be large or run the other way.
Potency means the concentration at half of the fitted maximal effect.

Test: Quantitative High-Throughput drug screen in 47 multiple myeloma cell lines against the NCATS MIPE library collection: OCIMY1_PLB cell viability assay (AID 1918979); further: nearly all actives have a fitted effect of over 35% in size
Conditions: OCI-MY1 myeloma viability, CellTiter-Glo ATP, 48 h; series mostly up to 45.8 µM; viability: at the top concentration
Description: PI: Beverly A. Mock Ph.D.
Laboratory of Cancer Biology and Genetics,
Center for Cancer Research, National Cancer Institute,
National Institute of Health, Bethesda, Maryland
Drug resistance and disease progression are common in multiple myeloma (MM) patients, underscoring the need for new therapeutic combinations. […] We hypothesized that effective combinations would reduce MYC expression and enhance p16 activity. […] These preclinical data identify potentially useful drug combinations for evaluation in drug-resistant MM and reveal potential mechanisms of combined drug sensitivity.
Described herein is the primary MIPE qHTS used to cherrypick compounds. Validated compounds were then further tested for potential synergistic activiy.
[1] Peat TJ, Gaikwad SM, Dubois W, Gyabaah-Kessie N, Zhang S, Gorjifard S, Phyo Z, Andres M, Hughitt VK, Simpson RM, Miller MA, Girvin AT, Taylor A, Williams D, D'Antonio N, Zhang Y, Rajagopalan A, Flietner E, Wilson K, Zhang X, Shinn P, Klumpp-Thomas C, McKnight C, Itkin Z, Chen L, Kazandijian D, Zhang J, Michalowski AM, Simmons JK, Keats J, Thomas CJ, Mock BA. Drug combinations identified by high-throughput screening promote cell cycle transition and upregulate Smad pathways in myeloma. Cancer Lett. 2023 Aug 1;568:216284. doi: 10.1016/j.canlet.2023.216284. Epub 2023 Jun 24. PMID: 37356470; PMCID: PMC10408729.
SEQUENCE No. (e.g., 1, 2, 3, etc.); […] (e.g., Cells, Incubation, Reagent, etc.); VALUE and DESCRIPTION.
1; Cells; 5 uL; white, solid bottom 1536-well Greiner assay plate.
2; Compounds; 23 nL; Kalypsis pin tool (Wako USA) equipped with a 1536-well pin head to transfer to the assay plates.
3; Incubation; 48 hours; 37C incubation.
4; Reagent;5uL; CellTiter Glo (Promega).
5; Detector; 425V; Luminescence; Viewlux PerkinElmer.
NOTES (numbers refer to Sequence numbers above)
1. The cell-based screening methods employed in this study were like those previously published. Briefly, the corresponding myeloma cell lines were screened in 1,536-well plates with 500 cells, 5-uL per well for inhibition of cell viability (assessed by measuring ATP levels with CellTiterGlo).
2. NCATS MIPE 4.0 library of approved and investigational drugs were added using the Kalypsis pin tool. Wells treated with DMSO only for 100% viability and media only for 0% viability were used as controls.
3. The assay plates were covered and incubated for 48 hours in a 37C, 5% CO2 incubator with controlled humidity.
4. After 48 hours, CellTilter-GloTM luminescent substrate mix (Promega) reagent was added to the assay plate and plates we incubated for 5 min at room temperature.
5. Signal was measured as median relative luminescence units on a ViewLux (PerkinElmer) multiplate reader.
[1] Heske CM, Davis MI, Baumgart JT, Wilson K, Gormally MV, Chen L, Zhang X, Ceribelli M, Duveau DY, Guha R, Ferrer M, Arnaldez FI, Ji J, Tran HL, Zhang Y, Mendoza A, Helman LJ, Thomas CJ. Matrix Screen Identifies Synergistic Combination of PARP Inhibitors and Nicotinamide Phosphoribosyltransferase (NAMPT) Inhibitors in Ewing Sarcoma. Clin Cancer Res. 2017 Dec 1;23(23):7301-7311. doi: 10.1158/1078-0432.CCR-17-1121. Epub 2017 Sep 12. PMID: 28899971; PMCID: PMC6636827.
With `NC(N)=NC(N)=NCCc1ccccc1` the Potency was inconclusive: 4.69 µM [cytotoxic, full curve, poor fit].
For `O=C(CCCCCCNC(=O)c1cnc(N(c2ccccc2)c2ccccc2)nc1)NO`, the Potency was active: 13.2 µM.
For `C#Cc1cccc(Nc2ncnc3cc(OCCOC)c(OCCOC)cc23)c1`, the “viability” value was inactive: 96.6%.
With `OCc1ccc(-c2nn(Cc3ccccc3)c3ccccc23)o1` the “viability” value was inactive: 102%.
In the case of `NC(=O)Nc1cc(-c2ccc(CN3CCOCC3)cc2)sc1C(N)=O`, the Potency is reported as inconclusive: 16.6 µM [cytotoxic, partial curve].
With `COc1ccc(Nc2cc(-c3cnc(N)nc3)nc(N3CCOCC3)n2)cn1` the Potency was inconclusive: 1.18 µM [cytotoxic, full curve].
In the case of `Cc1cnc(CNC(=O)c2c(=O)c3ccc(N4CCCN(C)CC4)nc3n3c2sc2ccccc23)cn1`, the Potency is reported as inconclusive: 18.2 µM [cytotoxic, single point].
In the case of `C#CCC(Cc1cnc2nc(N)nc(N)c2n1)c1ccc(C(=O)N[C@@H](CCC(=O)O)C(=O)O)cc1` (stereo not given in full), the “viability” value is reported as inactive: 110%.
With `CN(C)c1ccc(-c2nc3ncc(Cl)c(N4CCN(CC(=O)Nc5nccs5)CC4)c3[nH]2)cc1` the Potency was inconclusive: 37.2 µM [cytotoxic, single point].
With `CC(=O)N1CCN(c2ccc(OCc3nn(C)c(C)c3-c3cccc4c(CCCOc5cccc6ccccc56)c(C(=O)O)n(Cc5cccnc5)c34)cc2)CC1` the Potency was inconclusive: 18.7 µM [cytotoxic, partial curve].
For `Cc1cnc(Nc2ccc(F)cc2Cl)nc1-c1c[nH]c(C(=O)N[C@H](CO)c2cccc(Cl)c2)c1`, the Potency was active: 26.4 µM.
With `CN1CCCC(n2nc(Cc3ccc(Cl)cc3)c3ccccc3c2=O)CC1` (stereo not given) the Potency was inconclusive: 16.6 µM [cytotoxic, partial curve].
With `COc1cc(F)c(C(C)C)cc1-c1ccc(C(F)(F)F)cc1CN1C(=O)O[C@H](c2cc(C(F)(F)F)cc(C(F)(F)F)c2)[C@@H]1C` the “viability” value was inactive: 115%.
In the case of `OCCn1cc(-c2cnc3nnn(Cc4ccc5ncccc5c4)c3n2)cn1`, the Potency is reported as inconclusive: 0.743 µM [rising, partial curve, poor fit].
For `COC(=O)c1ccc2c(C(=Nc3ccc(N(C)C(=O)CN4CCN(C)CC4)cc3)c3ccccc3)c(O)[nH]c2c1`, the Potency was active: 10.5 µM.
For `Oc1cc2c(cc1O)C1c3ccc(O)c(O)c3OCC1(O)C2` (stereo not given), the “viability” value was inactive: 108%.
With `COc1cccc(OC)c1-c1cc(C(=O)NC2(C(=O)O)C3CC4CC(C3)CC2C4)nn1-c1ccnc2cc(Cl)ccc12` (stereo not given) the Potency was inconclusive: 0.209 µM [rising, full curve, poor fit].
In the case of `NC(=O)NO`, the Potency is reported as active: 0.662 µM.
In the case of `C[C@@H](N)C1CCC(C(=O)Nc2ccncc2)CC1` (stereo not given in full), the Potency is reported as inconclusive: 0.001 µM.
For `C[C@H]1[C@H](O)O[C@@H]2O[C@@]3(C)CC[C@@H]4[C@H](C)CC[C@@H]1[C@@]24OO3`, the Potency was inconclusive: 9.35 µM [cytotoxic, partial curve].
In the case of `O=C(O)CCC=CCC[C@@H]1[C@H](N2CCCCC2)[C@@H](O)C[C@@H]1OCc1ccc(-c2ccccc2)cc1`, the Potency is reported as inconclusive: 0.0023 µM [cytotoxic, full curve, poor fit].
In the case of `C1CCC(C(CC2CCCCN2)C2CCCCC2)CC1` (stereo not given), the Potency is reported as active: 29.6 µM.
In the case of `CCc1cccc(CC)c1NC(=O)N1Cc2[nH]nc(NC(=O)c3ccc(N4CCN(C)CC4)cc3)c2C1`, the Potency is reported as inconclusive: 0.0118 µM [rising, full curve, poor fit].
For `CNC(=O)c1ccc(N2C(=S)N(c3cnc(C#N)c(C(F)(F)F)c3)C(=O)C23CCC3)cc1F`, the Potency was inconclusive: 37.2 µM [cytotoxic, single point].
For `Nc1ccn([C@@H]2O[C@H](CO)[C@@H](O)C2O)c(=O)n1` (stereo not given in full), the Potency was inconclusive: 0.0093 µM [rising, full curve, poor fit].
For `Cc1nc2cnc3ccc(C#Cc4cccnc4)cc3c2n1-c1ccc(C(C)(C)C#N)cc1`, the Potency was active: 1.48 µM.
In the case of `CC(C=CC=C(C)C=CC1=C(C)CCCC1(C)C)=CC=CC=C(C)C=CC=C(C)C=CC1=C(C)CCCC1(C)C`, the Potency is reported as inconclusive: 11.8 µM [rising, single point].
For `CCC1=C[C@@H]2CN(C1)Cc1c([nH]c3ccccc13)[C@@](C(=O)OC)(c1cc3c(cc1OC)N(C)[C@@H]1[C@@](O)(C(=O)OC)[C@H](OC(C)=O)[C@]4(CC)C=CCN5CC[C@]31[C@@H]54)C2`, the Potency was active: 2.09 µM.
In the case of `CCOc1ccccc1N=Nc1c(C)[nH]n(-c2nc(-c3ccccc3)cs2)c1=O`, the Potency is reported as active: 7.43 µM.
In the case of `NC1(C(=O)N[C@@H](CCO)c2ccc(Cl)cc2)CCN(c2ncnc3[nH]ccc23)CC1`, the Potency is reported as inconclusive: 2.96 µM [cytotoxic, partial curve, poor fit].
In the case of `COc1ccccc1[C@H](c1cccc2ccccc12)[C@@](C)(C#N)C(=O)N1CCC(c2cccc(C(F)(F)F)c2)CC1`, the Potency is reported as inconclusive: 5.26 µM [cytotoxic, partial curve].
In the case of `CCCCCCNC(=O)n1cc(F)c(=O)[nH]c1=O`, the “viability” value is reported as inactive: 90.4%.
In the case of `CCOC(=O)N1CCN([N+]([O-])=NOc2cc(ON=[N+]([O-])N3CCN(C(=O)OCC)CC3)c([N+](=O)[O-])cc2[N+](=O)[O-])CC1`, the Potency is reported as active: 7.43 µM.
For `Cc1ccc(C(N)=O)cc1Nc1nccc(-c2cn(C(C)C)c3cnccc23)n1`, the Potency was inconclusive: 18.7 µM [cytotoxic, partial curve, poor fit].
In the case of `Cc1ccc(S(=O)(=O)Nc2nc3ccccc3nc2Nc2ccc3nsnc3c2)cc1`, the Potency is reported as inconclusive: 9.11 µM [cytotoxic, partial curve, poor fit].
For `COc1ccc(CCC(=O)Nc2nc3ccc(Cl)cc3s2)cc1OC`, the Potency was inconclusive: 0.001 µM [cytotoxic].
In the case of `CC(C)(Sc1cc(C(C)(C)C)c(O)c(C(C)(C)C)c1)Sc1cc(C(C)(C)C)c(O)c(C(C)(C)C)c1`, the Potency is reported as inconclusive: 0.0469 µM [rising, full curve, poor fit].
In the case of `CN(C)CCOc1ccc(-c2nc(-c3ccc4c(c3)CCC4=NO)c(-c3ccncc3)[nH]2)cc1`, the Potency is reported as active: 20.9 µM.
For `COc1cc(C=CC(=O)CC(=O)C=Cc2ccc(O)c(OC)c2)ccc1O`, the Potency was active: 21.5 µM.
With `O=C(c1cc(Cc2n[nH]c(=O)c3ccccc23)ccc1F)N1CCN(C(=O)C2CC2)CC1` the Potency was inconclusive: 0.0012 µM [rising, full curve, poor fit].
